According to patent US20140134177A1:
These are yes or no findings as the source states them, for the method shown. Some results given as binding are weak or reduced against the parent protein; the word gives no strength.

Biological target: FLAG-LGR5-CD4TM (human) (UniProt P01730)
Assay: FACS based assay, Fab format

binding: binds
B1: 88R21 Fab (Fab, V domains shown)
VH: QVQLVQSGAEVKKPGSSVKVSCKASGRTFSNYAIGWVRQAPGQGLEWMGGIRPNFGWAKYAQKFQGRVTITADESTSTAYMELSSLRSEDTAVYYCARYGQGHFPSAFDYWGQGTLVTVSS
VL: DIALTQPASVSGSPGQSITISCTGTNSDVGTYNYVHWYQQHPGKAPKLMIYDGSNRPSGVSNRFSGSKSGNTASLTISGLQAEDEADYYCQAYDSHSFNIVFGGGTKLTVLG
